# Data as given in PubChem BioAssay AID1508600 (Functional Genomics Laboratory (NCATS/FGL), 2020).
# Screen size: about 53,000 sequences; about 3,700 (7%) were called active.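 The calls were made as follows: active = gene knockdowns whose robust z-score for IL-1 alpha signal is at least 2 or at most -2, so actives lie on both sides; inactive = the rest.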 This is one part of the list.
# Experiment: Components of the Cytosolic LPS Sensing Pathway: Gene Identification via Genome-wide siRNA Screen;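 also: robust z of the log signal after scaling to non-targeting control siRNA wells of the plate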
# Details: RAW264.7 macrophages, IL-1a HTRF, actives lie on both sides, screened at 100 nM (by protocol), cells primed 5 h with Pam3CSK4 first
# How it was run: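 Read-out: IL-1a HTRF on supernatant, divided by plate negative-control median ×100, log-transformed and converted to robust z-score. Cells were RAW264.7 given 100 nM siRNA, Pam3CSK4-primed 5 hours, then LipidA-transfected 24 hour.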
row,Sequence,z-score
1,GCAUGUGCCUGACUGGGUUTT against Selenoi,inactive: 0.604
2,CCUGGCAGAACUUUGAUAGTT against Fars2,inactive: 0.883
3,GCGAGCUAAACAUUCUGAATT against Mia2,inactive: -1.71
4,GCCGAGAAACAUCCCAAACTT against Rnf114,inactive: -0.964
5,GGCCAAAGAGAUAUAUAUATT against Rassf3,inactive: -0.307
6,GGUGGACUCAAAAUUAGAATT against Ttc39b,inactive: 0.273
7,GGAAUACAGAUUUUUCAGATT against Frmd6,inactive: -1.15
8,GGCAAACCUGAAUUUACGGTT against Pcdha9,inactive: 0.124
9,GGCUCCAGUAAUUGAUAAATT against Sycp3,inactive: -0.0955
10,GGCUAAUAAAGUUGAGAAATT against Mcrip2,inactive: -0.852
11,CCCUUUGUUAUACUCUAAATT against Tra2a,inactive: 0.707
12,GAUUUGCUACUCCUCUACGTT against Olfr1273-ps,inactive: 1.42
13,CCAUCAUUCUCUGGUCAAATT against Sdha,inactive: 1.1
14,GGUCUGAUUUUCAACACCUTT against Aqp6,inactive: -1.14
15,GCCAGUCAUUAUAGUUAACTT against Slc47a1,inactive: 1.57
16,GGGAUAGUUACCUAAGACATT against Adarb2,inactive: 0.593
17,CGGAACACACCAAGAAUCUTT against Pick1,inactive: 0.447
18,CCGCUUUCGGCAAGUAUGGTT against Rbmxl2,inactive: 1.64
19,GCCAGUAACUCAACAGAAGTT against Umod,inactive: -0.269
20,CCAAGCUAUUGGCCCUGACTT against Defb38,inactive: 0.251
21,GCUAUAAUGCUGGAGUCAATT against P3h2,inactive: 0.27
22,GGUUGUUUUGCAUUUGUGUTT against Slc25a14,inactive: 0.158

row,Sequence,z-score
1,GGAGGUCCAAGAGAAAUGUTT against Hacd4,inactive: 0.0113
2,CCAUAGAGCUAAGUUAUUGTT against Mlec,inactive: -0.0865
3,GGUAUAGCGGUGCAUGUCATT against Bmp8a,inactive: -0.823
4,CCCAUAGUGAAUCAUAGUGTT against Olfr225,inactive: 0.451
5,GGAUGUCCACAUCAAGGCUTT against Dscam,inactive: -0.034
6,CCCAAGCAAAUGGUGUAAUTT against Rab5a,inactive: 0.412
7,GGUGCAAGUGCAGUUUCAATT against Fxyd6,active: 2.38
8,GGACAAACUAGCAACCACUTT against Map7,inactive: -0.309
9,GGAGCUUCAAGGUCUGUCGTT against Tmc6,active: -2.65
10,CCUUGUAGUAAUAGGGAUGTT against Olfr116,inactive: 0.681
11,CGCAGGAUCUUAAAGAGCATT against Naga,inactive: 0.983
12,GCUCGUCAGCAGUAAGAAUTT against Nmbr,inactive: 0.295
13,GCUCAAACGAAAUGAUUCATT against Gys2,active: 2.01
14,GGCCUGUCCAAAGAAGUGATT against E2f3,active: 2.2
15,GGCACGAUGGUUCAUCCUUTT against Plek2,active: -2.01
16,GCAUUAACUGCAUUGAGCATT against Ccn3,inactive: -1.19
17,GCGGGACUGGAUAAUAAACTT against Orc2,inactive: 0.201
18,GCCUGAGCUUUACAAGCAGTT against Syt6,inactive: -0.661
19,CGGAACGAUCCGGAACAUCTT against Idh2,inactive: 0.627
20,CGUAUUUAUUGACUCACUATT against Klhl17,inactive: 0.0456
21,AUGACUAACAUUUUCCACCTT against Tpbpb,inactive: 0.169
22,GGAUUCUGAUCUUUGGUGUTT against Tmem130,inactive: 0.482

# In another format: results already given.
row | Sequence | z-score
10 | CCUUGUAGUAAUAGGGAUGTT against Olfr116 | inactive: 0.681
11 | CGCAGGAUCUUAAAGAGCATT against Naga | inactive: 0.983
12 | GCUCGUCAGCAGUAAGAAUTT against Nmbr | inactive: 0.295
13 | GCUCAAACGAAAUGAUUCATT against Gys2 | active: 2.01

# (further entries)

row,Sequence,z-score
1,GGGAUCUAAGAAAGCCAUCTT against H2bc3,inactive: 0.429
2,GGACUGCUGAACUUGCUCATT against Ccdc28b,inactive: -1.23
3,GGAGAGAUGAUACUGUUGGTT against Olfr1295,inactive: -0.197
4,GCAUGCUAGAAGCUAAAAATT against Golga3,inactive: 1.48
5,GGGCUACAAGAAAAAGUAUTT against Krt85,active: 2.69
6,GGAGAACGAGUUGUAUAGCTT against Dok2,inactive: -0.391
7,GGGCUUAUCUAUGUCCUUCTT against Olfr59,inactive: 0.901
8,GCGAGUGAUAAGACAGCCATT against Map6d1,inactive: 0.783
9,GCAAGCUUAUAUGUUUGACTT against Ggh,inactive: 1.06
10,CCGUGAUAACAACAUUUGUTT against Olfr750,inactive: -0.833
11,GGAGAGAAACUGCGUGUAATT against Sla,inactive: 1.46
12,CCCGAACAGAGGAUCGAAATT against Cxadr,inactive: 0.071
13,GCCCAAACAUAUUAAACUUTT against Ubap2,inactive: 0.416
14,GCAACUCAGCUGUUGUGAGTT against Ifitm2,active: 2.99
15,GGGAGGUUCCUAUUGAAGGTT against Unc5d,inactive: -0.304
16,GGAACAUAGAUGCGUGUGGTT against Rprm,inactive: -0.913
17,CCUUAGAGAGUAUGAUUAUTT against 4933405O20Rik,inactive: 1.17
18,GGUCUUCUAUAUCCUGUGCTT against Fbxo6,inactive: -0.823
19,GGGCUCAGAGACAAACUGUTT against Tnr,inactive: 1.6
20,GGGUCAUUCUGUUACUCUUTT against Taar7a,inactive: 1.17
21,CCUUCUAGUACAAAAGUUGTT against Jmjd1c,inactive: 1.32
22,GGUGAUGAUGAUGGGCAACTT against Cdkn2a,active: 2.02

row,Sequence,z-score
1,CGGAUUACUUUGUAAAGAUTT against Il17rd,inactive: 0.838
2,CGAGGAGCCUGAAAUAUGGTT against Exosc2,active: -2.42
3,GGCAUUUGACCCAGAAGACTT against Cdhr3,inactive: 0.652
4,GGGAAUAUGUGAAACAGACTT against Syk,inactive: -0.229
5,GGGCAGACCUAAUAGCUUATT against Cycs,inactive: 0.707
6,GGAGAGUCACUGUUGAUGGTT against Sumf1,inactive: -0.292
7,GCACGGUCAGUUCUGUGAUTT against Fbxl6,inactive: -1.54
8,GGAAGUGGACUACUUCUUCTT against Olfr1511,inactive: -0.516
9,GGUGAAAAAGUCUGACUGUTT against Ptn,inactive: -0.21
10,GGGCUUCUUUGCCACACUUTT against Rho,inactive: 0.761
11,GGUACCUAUGCCAGUUUUGTT against Aqp12,active: 2.89
12,CCCUGUUAAGGAAUGCAAATT against Chil1,inactive: 0.367
13,GGGUGAAUUUUGUUUUUGUTT against Kcnj14,active: 3.05
14,CCUUGCACUCAGUCCAUGATT against Gatc,inactive: 0.132
15,GGACAGAAUCCUCUCCAGGTT against Tas1r1,inactive: -0.531
16,GGCAUCUUAUGGCCUAAAATT against Rnf31,inactive: -1.08
17,GGAGAAGAAUUCUUACAGGTT against Fbxo16,inactive: 0.468
18,GGCGAGUUUUAUGUCAUUGTT against Fxr1,inactive: 0.422
19,GGUUGGAAUUGUGCAAUAATT against Fbxo48,inactive: 0.164
20,GGAGAAACGCAAGAAACGUTT against Zrsr1,inactive: -0.28
21,GGAGAUACCGGGAAUCCAATT against Rpl19,inactive: 0.146
22,GGCGAGAGAGAUGAGUAAATT against Smim3,inactive: -1.63

row,Sequence,z-score
1,GGGUAAAUAUGUGGAAAACTT against Zfp503,inactive: -0.283
2,CCUCAUUGUUUUAUACCCUTT against Olfr1140,inactive: 0.309
3,GGAACAUAUUUAUUGGUGATT against Nipal2,inactive: 0.372
4,CGUGCAGAGGUGGUACCAATT against Nsun5,inactive: 0.0204
5,CCUUGCCUUUACUACCAGUTT against Olfr15,inactive: -0.187
6,GUGGCUAUCGGCACAACAUTT against Gpha2,inactive: 0.604
7,GGAAGGUACUCUGAUGGAATT against Ptpn13,inactive: 1.36
8,GGAACUACCUCUUCAGACUTT against Sema5b,inactive: 0.756
9,CCGCUUCCAUCACAACAGUTT against Zc3hav1,inactive: -0.819
10,GCCAACAAUUACGUAUCAATT against Papolg,inactive: 0.755
11,GUAGUAGUCCUAGGUCUACTT against Spag8,inactive: 0.936
12,CCUGGUUAAAGGUUAUCCATT against Commd7,inactive: -3.9e-05
13,GGCCUUUCUGGAGAAGAUGTT against Stfa3,inactive: -0.526
14,CGUUCAUAAUGACUCCGUUTT against Slc39a10,inactive: 1.78
15,GGGCAAAUGAUAUAAGGAUTT against Ndufa12,inactive: -0.585
16,GGAAUUUGUUCUCUUAUCGTT against Anapc1,inactive: -0.541
17,CCUAUAUCAUCAUGGUUUGTT against Tmx1,active: 2.4
18,GGACAAAGUGGUUAUGUGGTT against Rims1,inactive: -1.84
19,GAUGUACGAGAGCUUAGCATT against Uqcc2,inactive: -1.14
20,GCUAUAGUUACUAAACUACTT against Flt1,inactive: -0.0427
